Laboratory results: publication PMC6963571
These are yes or no findings as the source states them, for the method shown. Some binding calls cover weakened binding; strength is not graded here.

T1: genetically modified nitroreductase (NfnB-Cys) (Escherichia coli K-12) (UniProt P38489)
T1 sequence: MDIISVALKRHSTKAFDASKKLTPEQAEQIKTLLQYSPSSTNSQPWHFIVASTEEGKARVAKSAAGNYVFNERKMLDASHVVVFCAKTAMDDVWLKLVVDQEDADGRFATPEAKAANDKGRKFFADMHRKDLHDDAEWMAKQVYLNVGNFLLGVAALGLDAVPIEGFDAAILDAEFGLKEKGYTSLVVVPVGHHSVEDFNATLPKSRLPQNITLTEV


Molecular target: T1, genetically modified nitroreductase (NfnB-Cys) (Escherichia coli K-12)
Assay: native gel or EMSA; both purified

Binder | binding
CHHHHHHRRRRRRRRRHHHHHHC [HR9] | binds
KETWWETWWTEWSQPKKKRKV [Pep-1] | binds
